Laboratory results taken from article PMC2483982.
Results are given in words; binding and its absence hold for the method and conditions named. In cells and extracts the contact can be indirect. Some results given as binding are weak or reduced against the parent protein; the word gives no strength.

The chains behind the UniProt entries cited, without tags or fusion partners.
UniProt P27361: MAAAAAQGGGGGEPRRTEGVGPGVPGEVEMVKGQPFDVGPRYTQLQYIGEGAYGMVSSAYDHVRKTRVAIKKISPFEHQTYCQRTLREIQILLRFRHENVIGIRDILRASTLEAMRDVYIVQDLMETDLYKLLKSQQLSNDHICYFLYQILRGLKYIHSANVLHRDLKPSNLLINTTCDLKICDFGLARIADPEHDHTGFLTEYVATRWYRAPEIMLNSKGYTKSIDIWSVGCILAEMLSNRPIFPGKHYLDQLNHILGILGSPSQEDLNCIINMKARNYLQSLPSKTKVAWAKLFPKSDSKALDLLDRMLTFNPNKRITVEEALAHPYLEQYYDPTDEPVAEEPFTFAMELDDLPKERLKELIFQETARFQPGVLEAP
UniProt P28482: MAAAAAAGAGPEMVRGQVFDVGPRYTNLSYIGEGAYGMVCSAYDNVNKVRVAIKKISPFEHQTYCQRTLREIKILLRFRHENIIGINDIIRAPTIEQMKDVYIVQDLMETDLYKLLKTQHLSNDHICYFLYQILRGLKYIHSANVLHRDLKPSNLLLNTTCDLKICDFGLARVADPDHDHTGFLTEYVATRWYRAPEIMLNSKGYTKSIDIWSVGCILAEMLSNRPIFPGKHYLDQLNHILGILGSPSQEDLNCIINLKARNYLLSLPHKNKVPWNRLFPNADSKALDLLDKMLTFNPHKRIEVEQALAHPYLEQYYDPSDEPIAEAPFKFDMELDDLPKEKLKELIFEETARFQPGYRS
UniProt P78527: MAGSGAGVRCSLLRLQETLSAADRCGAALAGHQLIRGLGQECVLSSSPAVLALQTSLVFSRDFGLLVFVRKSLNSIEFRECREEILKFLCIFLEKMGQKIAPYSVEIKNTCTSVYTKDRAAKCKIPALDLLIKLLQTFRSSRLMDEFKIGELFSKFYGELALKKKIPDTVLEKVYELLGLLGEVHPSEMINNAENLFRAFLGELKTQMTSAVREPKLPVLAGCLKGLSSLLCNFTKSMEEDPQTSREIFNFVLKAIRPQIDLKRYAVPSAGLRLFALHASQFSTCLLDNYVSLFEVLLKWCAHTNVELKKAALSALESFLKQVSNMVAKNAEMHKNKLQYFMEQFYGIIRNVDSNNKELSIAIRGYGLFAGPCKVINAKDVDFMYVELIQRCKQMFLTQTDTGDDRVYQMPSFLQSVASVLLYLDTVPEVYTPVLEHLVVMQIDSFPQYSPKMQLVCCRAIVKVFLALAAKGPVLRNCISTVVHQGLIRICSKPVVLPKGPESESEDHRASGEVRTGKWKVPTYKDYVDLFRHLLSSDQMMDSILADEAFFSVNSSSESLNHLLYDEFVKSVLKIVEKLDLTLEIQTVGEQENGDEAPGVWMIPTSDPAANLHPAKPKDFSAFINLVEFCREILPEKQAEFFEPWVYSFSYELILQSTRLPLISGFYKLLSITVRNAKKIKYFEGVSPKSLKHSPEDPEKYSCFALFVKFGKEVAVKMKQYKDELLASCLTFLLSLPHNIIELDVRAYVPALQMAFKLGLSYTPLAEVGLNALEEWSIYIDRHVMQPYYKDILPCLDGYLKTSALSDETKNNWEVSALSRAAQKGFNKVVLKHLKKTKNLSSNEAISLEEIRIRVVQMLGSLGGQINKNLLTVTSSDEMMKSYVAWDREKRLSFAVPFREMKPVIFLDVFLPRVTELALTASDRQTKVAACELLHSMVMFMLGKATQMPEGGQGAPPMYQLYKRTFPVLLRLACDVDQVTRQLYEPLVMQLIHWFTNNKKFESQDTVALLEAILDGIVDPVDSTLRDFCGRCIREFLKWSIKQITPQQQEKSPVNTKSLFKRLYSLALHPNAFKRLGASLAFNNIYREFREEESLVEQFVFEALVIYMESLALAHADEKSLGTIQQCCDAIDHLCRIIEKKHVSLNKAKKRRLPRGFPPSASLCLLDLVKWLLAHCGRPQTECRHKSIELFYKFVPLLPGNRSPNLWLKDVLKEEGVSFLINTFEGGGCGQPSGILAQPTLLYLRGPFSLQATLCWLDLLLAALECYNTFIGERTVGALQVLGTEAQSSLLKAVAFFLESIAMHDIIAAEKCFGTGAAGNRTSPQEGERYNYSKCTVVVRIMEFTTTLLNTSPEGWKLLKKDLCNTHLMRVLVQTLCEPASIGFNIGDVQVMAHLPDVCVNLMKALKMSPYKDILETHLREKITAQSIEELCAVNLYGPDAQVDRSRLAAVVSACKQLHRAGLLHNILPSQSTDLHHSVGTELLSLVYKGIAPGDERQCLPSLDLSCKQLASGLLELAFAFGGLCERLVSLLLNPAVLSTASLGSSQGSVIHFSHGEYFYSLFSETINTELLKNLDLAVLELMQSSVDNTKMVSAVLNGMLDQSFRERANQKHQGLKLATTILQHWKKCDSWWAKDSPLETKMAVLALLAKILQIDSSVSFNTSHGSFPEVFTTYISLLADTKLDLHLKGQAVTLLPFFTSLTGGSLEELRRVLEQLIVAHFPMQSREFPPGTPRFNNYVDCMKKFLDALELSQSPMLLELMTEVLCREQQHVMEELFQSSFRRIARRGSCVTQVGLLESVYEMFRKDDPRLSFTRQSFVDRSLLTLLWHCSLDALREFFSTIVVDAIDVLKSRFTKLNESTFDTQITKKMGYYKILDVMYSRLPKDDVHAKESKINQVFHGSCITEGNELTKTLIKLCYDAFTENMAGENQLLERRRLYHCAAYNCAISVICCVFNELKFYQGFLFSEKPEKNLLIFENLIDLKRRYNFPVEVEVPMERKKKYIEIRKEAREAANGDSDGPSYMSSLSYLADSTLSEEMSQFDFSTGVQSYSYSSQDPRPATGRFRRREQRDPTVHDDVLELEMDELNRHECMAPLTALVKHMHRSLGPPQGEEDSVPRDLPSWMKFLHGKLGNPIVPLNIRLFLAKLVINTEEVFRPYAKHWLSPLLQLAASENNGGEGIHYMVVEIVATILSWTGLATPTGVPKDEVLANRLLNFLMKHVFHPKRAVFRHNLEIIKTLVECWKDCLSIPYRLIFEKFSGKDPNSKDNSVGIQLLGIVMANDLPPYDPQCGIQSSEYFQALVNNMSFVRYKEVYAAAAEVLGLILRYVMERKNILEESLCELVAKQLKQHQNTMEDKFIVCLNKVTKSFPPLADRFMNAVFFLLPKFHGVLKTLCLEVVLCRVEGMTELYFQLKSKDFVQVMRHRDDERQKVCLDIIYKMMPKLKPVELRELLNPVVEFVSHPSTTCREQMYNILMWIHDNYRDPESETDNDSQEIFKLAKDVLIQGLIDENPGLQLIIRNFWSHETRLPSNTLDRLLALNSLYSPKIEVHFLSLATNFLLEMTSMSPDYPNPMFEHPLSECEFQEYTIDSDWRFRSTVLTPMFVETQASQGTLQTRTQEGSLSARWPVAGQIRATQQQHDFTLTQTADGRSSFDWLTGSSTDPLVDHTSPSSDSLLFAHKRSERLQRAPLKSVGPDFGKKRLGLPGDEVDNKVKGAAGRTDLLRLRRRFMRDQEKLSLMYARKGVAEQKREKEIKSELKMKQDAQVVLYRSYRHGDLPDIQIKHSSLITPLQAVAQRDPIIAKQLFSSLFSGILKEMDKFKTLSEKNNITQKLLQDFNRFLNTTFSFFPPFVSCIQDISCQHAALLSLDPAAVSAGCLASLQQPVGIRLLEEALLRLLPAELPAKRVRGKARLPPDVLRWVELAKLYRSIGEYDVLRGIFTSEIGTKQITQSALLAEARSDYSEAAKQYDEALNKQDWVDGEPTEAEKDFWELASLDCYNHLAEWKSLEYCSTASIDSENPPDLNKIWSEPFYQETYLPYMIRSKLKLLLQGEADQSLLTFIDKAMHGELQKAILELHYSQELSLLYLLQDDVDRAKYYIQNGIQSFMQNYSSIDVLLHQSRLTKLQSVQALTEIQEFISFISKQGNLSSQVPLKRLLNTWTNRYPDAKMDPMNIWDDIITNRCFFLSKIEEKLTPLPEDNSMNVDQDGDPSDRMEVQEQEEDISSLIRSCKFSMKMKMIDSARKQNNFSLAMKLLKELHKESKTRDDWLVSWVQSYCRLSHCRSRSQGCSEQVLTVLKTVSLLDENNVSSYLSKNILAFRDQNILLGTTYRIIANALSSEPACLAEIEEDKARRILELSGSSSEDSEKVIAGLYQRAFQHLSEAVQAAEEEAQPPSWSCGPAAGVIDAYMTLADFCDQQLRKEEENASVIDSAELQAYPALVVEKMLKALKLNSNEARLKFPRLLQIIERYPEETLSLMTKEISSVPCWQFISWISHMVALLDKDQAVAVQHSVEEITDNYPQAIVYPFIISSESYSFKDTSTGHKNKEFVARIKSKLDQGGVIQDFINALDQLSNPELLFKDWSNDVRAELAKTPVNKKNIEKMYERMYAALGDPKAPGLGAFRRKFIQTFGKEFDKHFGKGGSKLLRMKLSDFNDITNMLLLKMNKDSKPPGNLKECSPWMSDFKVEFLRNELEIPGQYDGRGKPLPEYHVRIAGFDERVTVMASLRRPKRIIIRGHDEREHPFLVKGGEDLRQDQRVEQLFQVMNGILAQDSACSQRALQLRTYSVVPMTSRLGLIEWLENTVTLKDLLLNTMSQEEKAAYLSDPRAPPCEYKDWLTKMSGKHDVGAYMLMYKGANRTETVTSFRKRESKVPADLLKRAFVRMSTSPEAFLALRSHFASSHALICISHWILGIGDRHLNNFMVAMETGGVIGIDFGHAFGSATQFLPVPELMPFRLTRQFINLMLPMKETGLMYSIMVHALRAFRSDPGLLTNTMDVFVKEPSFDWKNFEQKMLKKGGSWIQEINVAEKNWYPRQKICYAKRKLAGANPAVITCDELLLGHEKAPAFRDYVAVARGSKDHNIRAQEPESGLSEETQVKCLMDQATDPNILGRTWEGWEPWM

What was measured:
[1] = biological target: T1, Annexin A1 (human (endogenous in cervical biopsy tissue)) (UniProt P04083); test: co-IP; data not shown; lysates of human cervical biopsies; annexin A1 in complex with pERK and pMEK; which antibody precipitated is not told
T1 sequence: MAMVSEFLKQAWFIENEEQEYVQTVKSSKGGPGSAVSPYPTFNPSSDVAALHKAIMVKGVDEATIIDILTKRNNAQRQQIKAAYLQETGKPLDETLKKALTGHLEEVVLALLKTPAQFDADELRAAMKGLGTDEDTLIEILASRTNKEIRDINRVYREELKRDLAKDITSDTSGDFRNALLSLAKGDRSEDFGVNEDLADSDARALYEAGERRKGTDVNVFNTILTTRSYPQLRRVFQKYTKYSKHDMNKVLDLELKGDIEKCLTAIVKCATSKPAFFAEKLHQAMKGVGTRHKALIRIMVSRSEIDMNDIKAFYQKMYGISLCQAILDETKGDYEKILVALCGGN

[2] = biological target: T1, Annexin A1 (human (endogenous in cervical biopsy tissue)); test: co-IP; lysates of human cervical biopsies; DNA-PKcs with annexin A1; told only in the discussion, kind of specimen not told

Row | Substance | binding [1] | binding [2]
1 | phosphorylated activated ERK1 (from UniProt P27361 1-379) | binds | 
2 | phosphorylated activated ERK2 (from UniProt P28482 1-360) | binds | 
3 | phosphorylated activated MEK1 (from UniProt Q02750 1-393) | binds | 
4 | DNA-Protein Kinase catalytic subunit (from UniProt P78527 1-4128) |  | binds
